Results from US9809586B2, “Inhibitors of collagen prolyl 4-hydroxylase” (WISCONSIN ALUMNI RESEARCH FOUNDATION, priority 2015, dated 2017).

Test: Assay of Fe(II)-affinity for biheteroaryl ligands (Fe20-EC50 titration, spectrophotometry)
Assay type: physicochemical
Method: A library of biheteroaryl compounds (FIG. 2) was prepared and evaluated them as iron chelators in vitro. The library was assembled either from commercial vendors (pypyr and pyim) or by synthesis using palladium-catalyzed cross-coupling reactions (pypyraz, pypyrid, pyox, and pythi). To evaluate the iron affinity of these compounds in vitro, titration experiments were performed to determine the half-maximal concentration required to form a complex with 20 μM Fe(II) at pH 7.0.
The affinity of biheteroaryl ligands for Fe(II) was determined comparatively by measuring the half-maximal concentration (EC50) required for binding 20 μM Fe(II) (Fe20-EC50) in sodium phosphate buffer at pH 7. Stock solutions of ligands were prepared in either water for high affinity ligands (typically Fe20-EC50<1 mM) or DMSO for low affinity ligands (typically Fe20-EC50>1000 μM). Stock solutions of FeSO4 were prepared in H2O and used within 3 hours of preparation. […] For high affinity ligands, solutions were allowed to equilibrate for 15 min, after which the absorbance was recorded at the λmax for the complex under study. For most low affinity ligands, the corresponding Fe(II) complexes were unstable and observed to dissociate over time. Therefore, the absorbance value was determined within 30 s of mixing, where the absorbance was measured at the λmax for the complex under study. […]

Compound: O=C(O)c1ccc(-c2ncc(C(=O)O)[nH]2)nc1 [pyimDC, 2-(5-Carboxy-1-H-imidazol-2-yl)pyridine-5-carboxylic Acid]
- Complex formation with free iron detected by spectrophotometry (concentrations up to 1 mM): not observe

Compound: c1ccc(-c2ncco2)nc1 [pyox, 2-(Oxazol-2-yl)pyridine]
- Formation of Fe(II) complex (20 μM Fe(II), pH 7.0): not observed
